Results deposited as PubChem BioAssay AID1259425 (University of Nebraska Medical Center, 2018).
Screen: 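Seek colon cancer weak points whose silencing resembles KSR1 loss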 (primary screen). Cells: HCT116 human colon cancer cells. Reagents: siRNA pool against human genes, 50 nM siRNA. Read-out: 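After 50 nM siRNA pool, branched-DNA assay measures six marker transcripts per well, minus blank, normalised to the geometric mean of two housekeeping transcripts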. Scale: BNIP3L mRNA: higher = more BNIP3L transcript after knockdown; NDRG1 mRNA: higher = more NDRG1 transcript after knockdown; BNIP3 mRNA: higher = more BNIP3 transcript after knockdown; ALDOC mRNA: higher = more ALDOC transcript after knockdown; ACSL5 mRNA: higher = more ACSL5 transcript after knockdown.
This is an unselected part of about 14,000 reagents tested. Not stated in the record: the time to read-out.

Target gene	BNIP3L mRNA, set 1	NDRG1 mRNA, set 1	BNIP3 mRNA, set 1	ALDOC mRNA, set 1	ACSL5 mRNA, set 1
LAT2	0.238	0.695	0.435	0.0599	0.3
NR3C2	0.0448	0.207	0.224	0.0145	0.134
EFNA4	0.132	0.164	0.42	0.0186	0.175
GALNT8	0.304	0.379	0.694	0.0921	0.207
OR2B6	0.0991	0.175	0.47	0.0647	0.278
ZNF2	0.151	0.239	0.367	0.0286	0.294
GZMA	0.0798	0.0817	0.181	0.0203	0.0913
PRRX1	0.083	0.157	0.307	0.0154	0.115
ZP3	0.0627	0.105	0.241	0.0168	0.178
CRX	0.0735	0.62	0.154	0.00141	0.236
PHF24	0.106	0.137	0.186	0.0469	0.127
WDR76	0.221	0.329	0.615	0.0527	0.282
SYNJ2BP	0.623	0.842	1.36	0.109	0.588

Copied from the list:
Result for LAT2 under “ACSL5 mRNA, set 1”: 0.3
EFNA4, ACSL5 mRNA, set 1: 0.175

More results:
Target gene	BNIP3L mRNA, set 1	NDRG1 mRNA, set 1	BNIP3 mRNA, set 1	ALDOC mRNA, set 1	ACSL5 mRNA, set 1
COX4I2	0.167	0.452	0.289	0.0337	0.191
SLC25A39	0.166	0.247	0.337	0.0214	0.229
EBLN2	0.075	0.171	0.246	0.0235	0.122
HGFAC	0.126	0.249	0.294	0.043	0.253
GRAMD1A	0.0733	0.534	0.447	0.0233	0.286
TOP1	0.0878	0.0829	0.21	0.0106	0.073
IFNAR2	0.0726	0.158	0.288	0.0252	0.166
